Results taken from patent US20200399318A1 (priority 2016, published 2020).
Strings that start with PEPTIDE1 are HELM notation: dots part the residues, brackets hold end groups and non-standard residues.

experiment: general procedure: Fmoc solid-phase peptide synthesis; NovaPEG Rink Amide resin; HBTU/HOBt/DIPEA; conditions: whole synthesis, masses verified by MALDI-TOF, scale of the general procedure 25 μmole

**Q.** Which “final LC-MS purity” value does the source give for “PEPTIDE1{[CH2CO].[dY].D.Y.P.G.D.Y.C.Y.L.[am]}$PEPTIDE1,PEPTIDE1,1:R3-9:R3$$$V2.0” here?
**A.** >90%

**Q.** With “PEPTIDE1{[CH2CO].[dY].D.Y.P.G.D.H.C.Y.L.Y.G.T.C.G.[am]}$PEPTIDE1,PEPTIDE1,1:R3-9:R3$$$V2.0” as the substance, how does the “final LC-MS purity” value read?
**A.** >90%

**Q.** For “PEPTIDE1{[CH2CO].[dY].D.Y.P.G.D.Y.C.Y.L.Y.G.T.[am]}$PEPTIDE1,PEPTIDE1,1:R3-9:R3$$$V2.0”, which “final LC-MS purity” value is on record?
**A.** >95%

**Q.** With “PEPTIDE1{[CH2CO].[dY].D.Y.P.G.D.Y.C.Y.L.Y.G.[am]}$PEPTIDE1,PEPTIDE1,1:R3-9:R3$$$V2.0” as the substance, how does the “final LC-MS purity” value read?
**A.** >95%

**Q.** For “PEPTIDE1{[CH2CO].[dY].D.Y.P.G.D.Y.C.Y.[am]}$PEPTIDE1,PEPTIDE1,1:R3-9:R3$$$V2.0”, which “final LC-MS purity” value is on record?
**A.** >90%

**Q.** With Ac-DYDYPGDYSYLY as the substance, how does the “final LC-MS purity” value read?
**A.** >95%

**Q.** For Ac-DYLYGTCG, which “final LC-MS purity” value is on record?
**A.** >95%

**Q.** Which “final LC-MS purity” value does the source give for Ac-DYDYPGDYSYLYGTCG here?
**A.** >95%
